From the supplement of paper PMC7666118 come the findings set out here.

Sequences of proteins named here, by UniProt entry; tags and fusion partners are left off. A change or cut given only in a name is not applied to a line headed by its entry.
UniProt Q6V1X1: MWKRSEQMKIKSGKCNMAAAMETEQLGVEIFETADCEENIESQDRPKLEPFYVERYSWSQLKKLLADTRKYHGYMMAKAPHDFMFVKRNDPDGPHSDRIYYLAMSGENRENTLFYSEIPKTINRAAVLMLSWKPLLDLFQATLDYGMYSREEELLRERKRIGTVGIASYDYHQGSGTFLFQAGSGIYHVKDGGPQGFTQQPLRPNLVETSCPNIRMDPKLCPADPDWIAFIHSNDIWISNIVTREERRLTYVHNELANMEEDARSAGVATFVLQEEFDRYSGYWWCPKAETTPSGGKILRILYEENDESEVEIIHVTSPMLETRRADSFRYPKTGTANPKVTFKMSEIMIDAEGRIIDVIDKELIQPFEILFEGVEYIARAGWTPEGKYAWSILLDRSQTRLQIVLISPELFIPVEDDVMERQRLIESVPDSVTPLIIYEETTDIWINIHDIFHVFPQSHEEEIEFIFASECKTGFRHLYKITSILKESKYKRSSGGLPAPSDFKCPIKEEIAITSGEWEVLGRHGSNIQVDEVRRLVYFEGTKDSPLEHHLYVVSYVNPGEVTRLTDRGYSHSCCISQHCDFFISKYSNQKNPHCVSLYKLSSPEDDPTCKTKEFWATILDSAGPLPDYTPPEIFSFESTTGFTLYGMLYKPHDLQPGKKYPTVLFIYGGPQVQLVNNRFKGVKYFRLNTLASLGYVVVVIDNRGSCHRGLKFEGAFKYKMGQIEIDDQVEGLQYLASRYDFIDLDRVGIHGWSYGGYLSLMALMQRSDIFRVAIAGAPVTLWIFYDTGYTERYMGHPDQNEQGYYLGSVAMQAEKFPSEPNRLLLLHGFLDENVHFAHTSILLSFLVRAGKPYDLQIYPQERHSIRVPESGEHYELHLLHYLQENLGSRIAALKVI
UniProt Q8WYQ5: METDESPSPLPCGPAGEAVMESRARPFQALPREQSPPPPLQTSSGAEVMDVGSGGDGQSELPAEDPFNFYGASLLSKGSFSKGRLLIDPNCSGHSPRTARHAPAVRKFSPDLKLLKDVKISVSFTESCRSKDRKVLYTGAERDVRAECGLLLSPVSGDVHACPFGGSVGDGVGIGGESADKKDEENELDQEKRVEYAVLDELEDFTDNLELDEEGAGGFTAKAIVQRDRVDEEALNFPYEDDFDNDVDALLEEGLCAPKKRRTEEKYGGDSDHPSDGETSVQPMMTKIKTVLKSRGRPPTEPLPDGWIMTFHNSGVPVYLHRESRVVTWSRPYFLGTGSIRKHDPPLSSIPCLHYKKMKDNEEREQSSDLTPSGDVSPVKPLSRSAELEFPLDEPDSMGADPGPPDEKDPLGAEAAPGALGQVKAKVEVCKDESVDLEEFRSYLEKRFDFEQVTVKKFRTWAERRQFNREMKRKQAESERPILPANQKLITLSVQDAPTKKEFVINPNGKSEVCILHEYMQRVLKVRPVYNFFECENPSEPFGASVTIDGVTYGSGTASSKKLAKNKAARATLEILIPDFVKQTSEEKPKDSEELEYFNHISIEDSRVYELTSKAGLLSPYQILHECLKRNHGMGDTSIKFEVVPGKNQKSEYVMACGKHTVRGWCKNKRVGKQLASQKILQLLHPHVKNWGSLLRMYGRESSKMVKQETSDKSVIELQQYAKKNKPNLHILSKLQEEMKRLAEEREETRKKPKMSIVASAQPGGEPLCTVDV
UniProt Q96G46: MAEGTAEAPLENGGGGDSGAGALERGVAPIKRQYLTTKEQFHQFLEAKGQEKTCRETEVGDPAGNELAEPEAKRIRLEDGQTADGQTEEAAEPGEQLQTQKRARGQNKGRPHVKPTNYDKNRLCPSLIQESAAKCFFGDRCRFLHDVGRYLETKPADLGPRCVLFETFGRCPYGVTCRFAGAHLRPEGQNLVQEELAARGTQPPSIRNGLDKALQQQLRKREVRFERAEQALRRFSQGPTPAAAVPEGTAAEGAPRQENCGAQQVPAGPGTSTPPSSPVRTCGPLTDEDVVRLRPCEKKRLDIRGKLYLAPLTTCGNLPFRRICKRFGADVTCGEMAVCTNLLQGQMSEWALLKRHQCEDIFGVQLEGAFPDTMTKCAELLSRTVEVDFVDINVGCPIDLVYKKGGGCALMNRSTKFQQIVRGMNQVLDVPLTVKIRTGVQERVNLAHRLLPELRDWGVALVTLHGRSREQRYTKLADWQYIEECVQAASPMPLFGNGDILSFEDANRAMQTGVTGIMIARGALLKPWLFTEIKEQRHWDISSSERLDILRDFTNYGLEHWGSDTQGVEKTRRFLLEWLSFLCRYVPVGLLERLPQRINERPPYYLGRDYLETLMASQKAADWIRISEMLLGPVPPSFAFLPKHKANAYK
UniProt O94830: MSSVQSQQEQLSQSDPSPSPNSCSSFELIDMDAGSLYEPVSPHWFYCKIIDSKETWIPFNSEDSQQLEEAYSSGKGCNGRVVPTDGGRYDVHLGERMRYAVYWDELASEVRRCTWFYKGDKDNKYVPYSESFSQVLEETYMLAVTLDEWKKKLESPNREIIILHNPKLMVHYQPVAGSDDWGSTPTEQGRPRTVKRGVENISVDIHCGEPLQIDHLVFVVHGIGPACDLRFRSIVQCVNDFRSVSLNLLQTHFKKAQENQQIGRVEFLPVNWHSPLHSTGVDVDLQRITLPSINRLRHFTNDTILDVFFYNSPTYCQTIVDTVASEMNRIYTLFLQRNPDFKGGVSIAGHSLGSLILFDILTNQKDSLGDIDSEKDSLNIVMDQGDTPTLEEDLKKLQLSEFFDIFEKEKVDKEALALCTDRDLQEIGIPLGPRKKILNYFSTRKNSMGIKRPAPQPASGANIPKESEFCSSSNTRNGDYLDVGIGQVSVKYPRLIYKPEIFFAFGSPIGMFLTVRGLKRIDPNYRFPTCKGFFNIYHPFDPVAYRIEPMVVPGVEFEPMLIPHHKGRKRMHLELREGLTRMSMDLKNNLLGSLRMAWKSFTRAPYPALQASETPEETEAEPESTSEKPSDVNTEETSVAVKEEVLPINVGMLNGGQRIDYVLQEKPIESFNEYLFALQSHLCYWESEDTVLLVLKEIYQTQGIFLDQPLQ
UniProt Q9UK59: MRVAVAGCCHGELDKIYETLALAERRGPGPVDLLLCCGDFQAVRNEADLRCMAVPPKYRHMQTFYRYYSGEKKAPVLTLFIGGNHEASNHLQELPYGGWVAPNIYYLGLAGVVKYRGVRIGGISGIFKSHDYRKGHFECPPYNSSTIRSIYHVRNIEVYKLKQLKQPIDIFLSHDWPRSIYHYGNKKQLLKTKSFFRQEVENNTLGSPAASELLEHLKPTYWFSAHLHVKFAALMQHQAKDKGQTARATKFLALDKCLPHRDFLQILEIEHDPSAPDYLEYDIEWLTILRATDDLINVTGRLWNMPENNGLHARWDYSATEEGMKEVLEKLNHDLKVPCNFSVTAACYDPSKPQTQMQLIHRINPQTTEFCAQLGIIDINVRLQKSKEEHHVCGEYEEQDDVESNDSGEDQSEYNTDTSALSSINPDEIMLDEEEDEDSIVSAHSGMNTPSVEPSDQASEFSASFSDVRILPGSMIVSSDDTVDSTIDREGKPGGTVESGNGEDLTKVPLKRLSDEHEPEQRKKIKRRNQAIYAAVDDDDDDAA
UniProt Q9UBS4: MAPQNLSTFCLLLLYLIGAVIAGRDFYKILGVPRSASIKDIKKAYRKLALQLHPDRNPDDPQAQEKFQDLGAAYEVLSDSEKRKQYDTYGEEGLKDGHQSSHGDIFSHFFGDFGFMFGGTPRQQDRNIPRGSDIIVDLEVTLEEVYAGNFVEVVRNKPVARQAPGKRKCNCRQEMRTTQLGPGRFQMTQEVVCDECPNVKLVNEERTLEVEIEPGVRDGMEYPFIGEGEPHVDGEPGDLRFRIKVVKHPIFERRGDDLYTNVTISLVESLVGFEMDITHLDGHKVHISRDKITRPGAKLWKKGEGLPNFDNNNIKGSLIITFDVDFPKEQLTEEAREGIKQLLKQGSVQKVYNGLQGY
UniProt Q13409, whole entry: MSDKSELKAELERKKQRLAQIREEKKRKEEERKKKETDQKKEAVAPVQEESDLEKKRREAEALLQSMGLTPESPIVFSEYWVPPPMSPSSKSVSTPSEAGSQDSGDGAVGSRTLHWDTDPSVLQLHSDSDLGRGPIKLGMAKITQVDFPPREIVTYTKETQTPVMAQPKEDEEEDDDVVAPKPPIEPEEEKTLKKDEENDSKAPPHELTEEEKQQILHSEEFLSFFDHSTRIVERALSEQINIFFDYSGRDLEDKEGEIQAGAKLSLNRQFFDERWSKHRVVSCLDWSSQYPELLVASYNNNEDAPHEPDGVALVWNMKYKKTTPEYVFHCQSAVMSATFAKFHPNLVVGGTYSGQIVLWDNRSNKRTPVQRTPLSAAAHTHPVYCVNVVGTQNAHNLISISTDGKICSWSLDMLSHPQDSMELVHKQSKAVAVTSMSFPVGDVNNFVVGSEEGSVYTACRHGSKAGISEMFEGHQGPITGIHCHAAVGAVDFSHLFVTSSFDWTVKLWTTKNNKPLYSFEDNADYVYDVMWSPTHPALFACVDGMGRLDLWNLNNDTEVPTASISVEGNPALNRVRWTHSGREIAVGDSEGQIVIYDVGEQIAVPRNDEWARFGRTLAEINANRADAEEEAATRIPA
UniProt Q8WXX5: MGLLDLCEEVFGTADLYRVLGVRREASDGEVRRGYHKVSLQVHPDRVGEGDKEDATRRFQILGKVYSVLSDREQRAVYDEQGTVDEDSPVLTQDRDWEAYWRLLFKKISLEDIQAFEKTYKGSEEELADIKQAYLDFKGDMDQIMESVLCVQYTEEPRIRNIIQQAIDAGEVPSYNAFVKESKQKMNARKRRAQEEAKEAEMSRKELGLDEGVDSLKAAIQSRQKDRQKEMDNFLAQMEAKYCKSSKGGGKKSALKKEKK
UniProt Q15438: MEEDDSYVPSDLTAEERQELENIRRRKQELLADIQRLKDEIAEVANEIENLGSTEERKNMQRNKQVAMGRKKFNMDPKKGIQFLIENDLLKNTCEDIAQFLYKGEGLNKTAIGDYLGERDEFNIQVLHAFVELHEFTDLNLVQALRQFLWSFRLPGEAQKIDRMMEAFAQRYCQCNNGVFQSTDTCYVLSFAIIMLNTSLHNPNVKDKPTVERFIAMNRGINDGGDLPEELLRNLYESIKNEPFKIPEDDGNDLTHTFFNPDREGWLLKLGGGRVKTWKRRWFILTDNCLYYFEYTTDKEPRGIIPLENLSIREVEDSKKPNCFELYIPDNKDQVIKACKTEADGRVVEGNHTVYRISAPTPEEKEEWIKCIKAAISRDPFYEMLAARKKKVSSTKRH
UniProt Q16698: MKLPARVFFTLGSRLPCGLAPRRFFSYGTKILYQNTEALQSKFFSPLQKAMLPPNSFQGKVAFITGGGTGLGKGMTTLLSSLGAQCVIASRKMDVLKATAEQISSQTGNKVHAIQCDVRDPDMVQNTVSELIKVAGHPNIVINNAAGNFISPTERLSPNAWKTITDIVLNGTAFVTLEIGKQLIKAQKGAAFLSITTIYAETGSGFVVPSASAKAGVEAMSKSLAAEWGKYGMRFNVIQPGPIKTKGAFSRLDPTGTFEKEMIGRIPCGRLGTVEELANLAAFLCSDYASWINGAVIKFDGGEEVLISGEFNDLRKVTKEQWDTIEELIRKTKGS
UniProt Q9NXE8: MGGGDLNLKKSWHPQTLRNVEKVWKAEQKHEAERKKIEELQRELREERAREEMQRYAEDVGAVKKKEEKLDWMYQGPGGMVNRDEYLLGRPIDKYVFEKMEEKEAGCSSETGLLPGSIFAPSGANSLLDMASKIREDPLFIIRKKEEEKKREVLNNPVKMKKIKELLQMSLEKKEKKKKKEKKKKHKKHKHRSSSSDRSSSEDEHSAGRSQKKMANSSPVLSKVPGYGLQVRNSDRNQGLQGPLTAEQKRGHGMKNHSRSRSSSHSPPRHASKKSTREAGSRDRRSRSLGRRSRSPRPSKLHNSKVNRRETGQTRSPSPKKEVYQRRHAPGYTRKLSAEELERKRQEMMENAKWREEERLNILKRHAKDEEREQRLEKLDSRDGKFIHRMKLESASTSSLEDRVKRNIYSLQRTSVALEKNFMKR
UniProt Q9NPI6: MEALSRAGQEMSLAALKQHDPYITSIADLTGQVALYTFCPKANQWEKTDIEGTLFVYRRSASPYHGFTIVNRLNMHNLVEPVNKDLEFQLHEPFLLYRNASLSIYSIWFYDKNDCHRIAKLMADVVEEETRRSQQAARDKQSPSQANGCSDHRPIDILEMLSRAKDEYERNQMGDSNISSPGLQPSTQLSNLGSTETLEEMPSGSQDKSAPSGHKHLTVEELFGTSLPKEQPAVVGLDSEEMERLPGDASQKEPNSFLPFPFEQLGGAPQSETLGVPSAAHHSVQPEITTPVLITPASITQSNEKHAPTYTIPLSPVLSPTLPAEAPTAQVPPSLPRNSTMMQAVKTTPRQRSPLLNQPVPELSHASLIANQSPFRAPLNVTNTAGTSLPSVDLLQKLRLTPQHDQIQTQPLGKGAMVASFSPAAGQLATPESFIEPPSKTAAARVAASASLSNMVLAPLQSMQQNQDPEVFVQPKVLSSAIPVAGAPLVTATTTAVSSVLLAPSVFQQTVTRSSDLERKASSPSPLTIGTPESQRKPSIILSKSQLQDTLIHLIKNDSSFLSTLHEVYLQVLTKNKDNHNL

Some of the results follow.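 The calls were made as follows: active = dose-dependent thermal stabilisation significant by F-test of dose-response against flat model at 10% FDR; inactive = not significant.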

Compound in the assay: Nc1nc2c(ncn2[C@@H]2O[C@H](COP(=O)(O)OP(=O)(O)OP(=O)(O)O)[C@@H](O)[C@H]2O)c(=O)[nH]1
Kind of assay: dose-dependent thermal stabilisation call (2D-TPP, DLPTP, 10% FDR) (binary (1 = stabilised)); higher = stabilised by the compound. To be noted: system: Jurkat gel-filtered lysate; concentration range 1-500 µM.
For the target DNASE2 (UniProt O00115), the “dose-dependent thermal stabilisation call” value was inactive: 0. EDC4 (UniProt Q6P2E9): the “dose-dependent thermal stabilisation call” value is inactive: 0.

As to CRLF3 (UniProt Q8IUI8), the “dose-dependent thermal stabilisation call” value was inactive: 0. In the case of DNM1L (UniProt O00429), the “dose-dependent thermal stabilisation call” value is active: 1. In the case of DNAJC7 (UniProt Q99615), the “dose-dependent thermal stabilisation call” value is inactive: 0. DENND1A (UniProt Q8TEH3): the “dose-dependent thermal stabilisation call” value is inactive: 0. As for DPP8 (UniProt Q6V1X1), the “dose-dependent thermal stabilisation call” value was active: 1.

DGCR8 (UniProt Q8WYQ5): the “dose-dependent thermal stabilisation call” value is active: 1. Turning to CSRP1 (UniProt P21291), the “dose-dependent thermal stabilisation call” value is inactive: 0. Take CSTF2T (UniProt Q9H0L4): the “dose-dependent thermal stabilisation call” value was inactive: 0. As for DUS3L (UniProt Q96G46), the “dose-dependent thermal stabilisation call” value is inactive: 0. For DDHD2 (UniProt O94830) the value was inactive: 0; for DCTPP1 (UniProt Q9H773), inactive: 0. To DGUOK (UniProt Q16854) belongs inactive: 0; to DAG1 (UniProt Q14118), inactive: 0. For DAZAP1 (UniProt Q96EP5), the “dose-dependent thermal stabilisation call” value is inactive: 0. As to DBR1 (UniProt Q9UK59), the “dose-dependent thermal stabilisation call” value is active: 1. For the target EAF1 (UniProt Q96JC9), the “dose-dependent thermal stabilisation call” value is inactive: 0. Regarding DNAJB11 (UniProt Q9UBS4), the “dose-dependent thermal stabilisation call” value was inactive: 0. For DLGAP4 (UniProt Q9Y2H0) the value was inactive: 0. On to DHX29 (UniProt Q7Z478), for which the “dose-dependent thermal stabilisation call” value is inactive: 0. Consider DDB1 (UniProt Q16531), for which the “dose-dependent thermal stabilisation call” value was inactive: 0. Take EEF1AKMT1 (UniProt Q8WVE0): the “dose-dependent thermal stabilisation call” value is inactive: 0. For DYNC1I2 (UniProt Q13409), the “dose-dependent thermal stabilisation call” value is active: 1. As for DNAJC9 (UniProt Q8WXX5), the “dose-dependent thermal stabilisation call” value was inactive: 0.

As for CYTH1 (UniProt Q15438), the “dose-dependent thermal stabilisation call” value is inactive: 0. Turning to DNAJB2 (UniProt P25686), the “dose-dependent thermal stabilisation call” value was inactive: 0. For DDHD1 (UniProt Q8NEL9) the value was inactive: 0. For DECR1 (UniProt Q16698) the value was inactive: 0; for CRTC1 (UniProt Q6UUV9), inactive: 0. As for CWC22 (UniProt Q9HCG8), the “dose-dependent thermal stabilisation call” value was inactive: 0. In the case of DNAJA2 (UniProt O60884), the “dose-dependent thermal stabilisation call” value was inactive: 0. CRY1 (UniProt Q16526): the “dose-dependent thermal stabilisation call” value was inactive: 0. For the target CWC25 (UniProt Q9NXE8), the “dose-dependent thermal stabilisation call” value was inactive: 0.

With DCP1A (UniProt Q9NPI6), the “dose-dependent thermal stabilisation call” value was inactive: 0.

Regarding EAPP (UniProt Q56P03), the “dose-dependent thermal stabilisation call” value is inactive: 0.
